# Values quoted from earlier work in patent publication US20260097002A1, “METHOD OF TREATMENT AND DEVICE FOR THE IMPROVED BIOAVAILABILITY OF LEUKOTRIENE RECEPTOR ANTAGONISTS” (INTELGENX CORP., priority 2022, published 2026).
# At least one compound was matched to its structure with a doubt left.
# Settings: 0.1 M hydrochloric acid solution; sodium vapor lamp; 6 hours; cited from earlier work
smiles,measurement,value
"CC(C)(O)c1ccccc1CC[C@@H](SCC1(CC(=O)O)CC1)c1cccc(/C=C/c2ccc3ccc(Cl)cc3n2)c1 [MTL, Montelukast]",Increase in amount of Montelukast m-isomer,14.6%
